Measurements as given in the supplement of paper PMC6411743.
± gives the standard deviation of the averaged measurements. The list shows a part of the results, in another mix than the full data. Most values lie at the level of the controls, where differences are scatter.

The chains behind the UniProt entries cited, without tags or fusion partners. Where a name states a change or a piece, a line headed by the entry shows the natural chain unless it says otherwise.
UniProt Q13614, whole entry: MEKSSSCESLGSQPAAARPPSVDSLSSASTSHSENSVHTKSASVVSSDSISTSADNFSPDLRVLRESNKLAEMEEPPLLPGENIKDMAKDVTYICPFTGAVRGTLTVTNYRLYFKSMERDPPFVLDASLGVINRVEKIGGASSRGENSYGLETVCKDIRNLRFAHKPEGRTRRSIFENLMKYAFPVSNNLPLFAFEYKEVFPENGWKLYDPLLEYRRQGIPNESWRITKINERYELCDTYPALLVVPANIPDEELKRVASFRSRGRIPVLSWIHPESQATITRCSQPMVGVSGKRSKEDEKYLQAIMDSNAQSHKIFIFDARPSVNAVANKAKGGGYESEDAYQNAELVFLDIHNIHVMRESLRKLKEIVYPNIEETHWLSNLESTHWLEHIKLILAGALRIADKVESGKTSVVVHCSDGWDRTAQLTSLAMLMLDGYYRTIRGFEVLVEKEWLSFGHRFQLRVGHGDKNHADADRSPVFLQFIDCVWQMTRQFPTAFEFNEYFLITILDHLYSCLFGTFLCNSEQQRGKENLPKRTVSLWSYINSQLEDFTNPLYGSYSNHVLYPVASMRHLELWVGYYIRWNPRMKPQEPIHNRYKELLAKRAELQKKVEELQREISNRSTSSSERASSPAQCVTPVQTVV
UniProt Q08AF3: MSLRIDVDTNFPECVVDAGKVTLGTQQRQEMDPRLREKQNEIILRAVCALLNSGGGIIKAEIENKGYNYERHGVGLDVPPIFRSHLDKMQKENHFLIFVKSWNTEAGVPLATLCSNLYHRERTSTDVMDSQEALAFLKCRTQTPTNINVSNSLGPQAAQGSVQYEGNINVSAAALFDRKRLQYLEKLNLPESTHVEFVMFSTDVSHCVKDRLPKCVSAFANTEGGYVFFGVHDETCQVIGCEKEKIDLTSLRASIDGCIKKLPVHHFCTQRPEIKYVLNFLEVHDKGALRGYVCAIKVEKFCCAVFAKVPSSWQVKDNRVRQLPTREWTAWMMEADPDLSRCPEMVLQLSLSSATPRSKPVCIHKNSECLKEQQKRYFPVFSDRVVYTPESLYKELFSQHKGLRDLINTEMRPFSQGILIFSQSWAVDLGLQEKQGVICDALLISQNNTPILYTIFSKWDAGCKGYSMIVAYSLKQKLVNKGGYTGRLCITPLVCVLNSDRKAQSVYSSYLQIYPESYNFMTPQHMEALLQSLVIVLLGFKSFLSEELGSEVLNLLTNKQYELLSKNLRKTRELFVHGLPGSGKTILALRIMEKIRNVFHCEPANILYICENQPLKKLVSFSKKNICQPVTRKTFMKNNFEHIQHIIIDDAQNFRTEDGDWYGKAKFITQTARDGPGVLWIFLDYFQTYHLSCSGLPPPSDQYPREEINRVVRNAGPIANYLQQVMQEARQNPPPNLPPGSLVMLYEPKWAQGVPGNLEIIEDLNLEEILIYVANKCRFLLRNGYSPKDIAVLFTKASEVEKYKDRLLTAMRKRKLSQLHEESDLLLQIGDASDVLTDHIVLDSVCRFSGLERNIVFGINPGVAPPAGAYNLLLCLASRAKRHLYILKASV
UniProt Q13596, whole entry: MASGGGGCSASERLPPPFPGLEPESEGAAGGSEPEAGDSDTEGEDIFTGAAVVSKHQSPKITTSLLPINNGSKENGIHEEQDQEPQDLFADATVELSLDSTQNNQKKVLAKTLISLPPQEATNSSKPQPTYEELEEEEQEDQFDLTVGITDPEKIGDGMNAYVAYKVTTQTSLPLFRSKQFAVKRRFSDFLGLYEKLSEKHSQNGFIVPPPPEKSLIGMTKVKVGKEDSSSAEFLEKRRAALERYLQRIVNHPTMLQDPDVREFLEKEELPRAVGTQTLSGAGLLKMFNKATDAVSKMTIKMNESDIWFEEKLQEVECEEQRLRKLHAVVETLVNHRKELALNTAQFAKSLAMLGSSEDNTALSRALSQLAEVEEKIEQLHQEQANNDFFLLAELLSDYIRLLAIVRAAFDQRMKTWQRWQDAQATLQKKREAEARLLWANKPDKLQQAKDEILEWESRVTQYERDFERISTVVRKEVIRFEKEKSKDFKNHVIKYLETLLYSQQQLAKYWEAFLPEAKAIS
UniProt Q12846: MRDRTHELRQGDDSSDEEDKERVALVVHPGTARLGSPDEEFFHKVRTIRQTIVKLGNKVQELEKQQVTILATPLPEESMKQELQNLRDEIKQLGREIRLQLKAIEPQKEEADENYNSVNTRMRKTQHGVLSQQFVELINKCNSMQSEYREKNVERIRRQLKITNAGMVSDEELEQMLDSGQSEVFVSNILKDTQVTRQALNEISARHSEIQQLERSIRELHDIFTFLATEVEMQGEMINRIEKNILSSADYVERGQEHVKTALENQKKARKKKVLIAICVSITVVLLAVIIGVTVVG
UniProt Q12959, whole entry, looked up: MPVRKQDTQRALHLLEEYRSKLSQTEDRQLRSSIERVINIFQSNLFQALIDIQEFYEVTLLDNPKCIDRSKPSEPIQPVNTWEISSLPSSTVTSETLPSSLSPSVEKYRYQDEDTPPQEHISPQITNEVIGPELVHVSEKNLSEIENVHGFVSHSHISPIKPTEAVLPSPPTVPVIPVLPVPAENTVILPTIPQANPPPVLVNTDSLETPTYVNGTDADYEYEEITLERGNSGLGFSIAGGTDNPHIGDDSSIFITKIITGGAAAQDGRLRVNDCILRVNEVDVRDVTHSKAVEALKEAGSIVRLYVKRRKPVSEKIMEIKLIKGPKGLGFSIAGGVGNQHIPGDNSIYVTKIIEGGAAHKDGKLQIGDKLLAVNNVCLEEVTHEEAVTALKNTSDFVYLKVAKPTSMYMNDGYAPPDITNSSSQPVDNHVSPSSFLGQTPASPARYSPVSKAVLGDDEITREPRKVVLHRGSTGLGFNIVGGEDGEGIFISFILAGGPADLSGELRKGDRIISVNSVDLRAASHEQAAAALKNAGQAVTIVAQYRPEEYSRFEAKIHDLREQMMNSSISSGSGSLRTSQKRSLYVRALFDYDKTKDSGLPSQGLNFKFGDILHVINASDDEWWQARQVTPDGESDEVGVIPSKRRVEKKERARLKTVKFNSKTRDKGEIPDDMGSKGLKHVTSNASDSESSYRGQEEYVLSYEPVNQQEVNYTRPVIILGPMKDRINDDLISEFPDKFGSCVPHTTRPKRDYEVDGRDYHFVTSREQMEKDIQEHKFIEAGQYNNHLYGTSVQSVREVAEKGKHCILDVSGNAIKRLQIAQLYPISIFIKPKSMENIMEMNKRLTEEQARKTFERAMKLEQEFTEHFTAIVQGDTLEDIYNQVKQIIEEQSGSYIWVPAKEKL
UniProt Q12802: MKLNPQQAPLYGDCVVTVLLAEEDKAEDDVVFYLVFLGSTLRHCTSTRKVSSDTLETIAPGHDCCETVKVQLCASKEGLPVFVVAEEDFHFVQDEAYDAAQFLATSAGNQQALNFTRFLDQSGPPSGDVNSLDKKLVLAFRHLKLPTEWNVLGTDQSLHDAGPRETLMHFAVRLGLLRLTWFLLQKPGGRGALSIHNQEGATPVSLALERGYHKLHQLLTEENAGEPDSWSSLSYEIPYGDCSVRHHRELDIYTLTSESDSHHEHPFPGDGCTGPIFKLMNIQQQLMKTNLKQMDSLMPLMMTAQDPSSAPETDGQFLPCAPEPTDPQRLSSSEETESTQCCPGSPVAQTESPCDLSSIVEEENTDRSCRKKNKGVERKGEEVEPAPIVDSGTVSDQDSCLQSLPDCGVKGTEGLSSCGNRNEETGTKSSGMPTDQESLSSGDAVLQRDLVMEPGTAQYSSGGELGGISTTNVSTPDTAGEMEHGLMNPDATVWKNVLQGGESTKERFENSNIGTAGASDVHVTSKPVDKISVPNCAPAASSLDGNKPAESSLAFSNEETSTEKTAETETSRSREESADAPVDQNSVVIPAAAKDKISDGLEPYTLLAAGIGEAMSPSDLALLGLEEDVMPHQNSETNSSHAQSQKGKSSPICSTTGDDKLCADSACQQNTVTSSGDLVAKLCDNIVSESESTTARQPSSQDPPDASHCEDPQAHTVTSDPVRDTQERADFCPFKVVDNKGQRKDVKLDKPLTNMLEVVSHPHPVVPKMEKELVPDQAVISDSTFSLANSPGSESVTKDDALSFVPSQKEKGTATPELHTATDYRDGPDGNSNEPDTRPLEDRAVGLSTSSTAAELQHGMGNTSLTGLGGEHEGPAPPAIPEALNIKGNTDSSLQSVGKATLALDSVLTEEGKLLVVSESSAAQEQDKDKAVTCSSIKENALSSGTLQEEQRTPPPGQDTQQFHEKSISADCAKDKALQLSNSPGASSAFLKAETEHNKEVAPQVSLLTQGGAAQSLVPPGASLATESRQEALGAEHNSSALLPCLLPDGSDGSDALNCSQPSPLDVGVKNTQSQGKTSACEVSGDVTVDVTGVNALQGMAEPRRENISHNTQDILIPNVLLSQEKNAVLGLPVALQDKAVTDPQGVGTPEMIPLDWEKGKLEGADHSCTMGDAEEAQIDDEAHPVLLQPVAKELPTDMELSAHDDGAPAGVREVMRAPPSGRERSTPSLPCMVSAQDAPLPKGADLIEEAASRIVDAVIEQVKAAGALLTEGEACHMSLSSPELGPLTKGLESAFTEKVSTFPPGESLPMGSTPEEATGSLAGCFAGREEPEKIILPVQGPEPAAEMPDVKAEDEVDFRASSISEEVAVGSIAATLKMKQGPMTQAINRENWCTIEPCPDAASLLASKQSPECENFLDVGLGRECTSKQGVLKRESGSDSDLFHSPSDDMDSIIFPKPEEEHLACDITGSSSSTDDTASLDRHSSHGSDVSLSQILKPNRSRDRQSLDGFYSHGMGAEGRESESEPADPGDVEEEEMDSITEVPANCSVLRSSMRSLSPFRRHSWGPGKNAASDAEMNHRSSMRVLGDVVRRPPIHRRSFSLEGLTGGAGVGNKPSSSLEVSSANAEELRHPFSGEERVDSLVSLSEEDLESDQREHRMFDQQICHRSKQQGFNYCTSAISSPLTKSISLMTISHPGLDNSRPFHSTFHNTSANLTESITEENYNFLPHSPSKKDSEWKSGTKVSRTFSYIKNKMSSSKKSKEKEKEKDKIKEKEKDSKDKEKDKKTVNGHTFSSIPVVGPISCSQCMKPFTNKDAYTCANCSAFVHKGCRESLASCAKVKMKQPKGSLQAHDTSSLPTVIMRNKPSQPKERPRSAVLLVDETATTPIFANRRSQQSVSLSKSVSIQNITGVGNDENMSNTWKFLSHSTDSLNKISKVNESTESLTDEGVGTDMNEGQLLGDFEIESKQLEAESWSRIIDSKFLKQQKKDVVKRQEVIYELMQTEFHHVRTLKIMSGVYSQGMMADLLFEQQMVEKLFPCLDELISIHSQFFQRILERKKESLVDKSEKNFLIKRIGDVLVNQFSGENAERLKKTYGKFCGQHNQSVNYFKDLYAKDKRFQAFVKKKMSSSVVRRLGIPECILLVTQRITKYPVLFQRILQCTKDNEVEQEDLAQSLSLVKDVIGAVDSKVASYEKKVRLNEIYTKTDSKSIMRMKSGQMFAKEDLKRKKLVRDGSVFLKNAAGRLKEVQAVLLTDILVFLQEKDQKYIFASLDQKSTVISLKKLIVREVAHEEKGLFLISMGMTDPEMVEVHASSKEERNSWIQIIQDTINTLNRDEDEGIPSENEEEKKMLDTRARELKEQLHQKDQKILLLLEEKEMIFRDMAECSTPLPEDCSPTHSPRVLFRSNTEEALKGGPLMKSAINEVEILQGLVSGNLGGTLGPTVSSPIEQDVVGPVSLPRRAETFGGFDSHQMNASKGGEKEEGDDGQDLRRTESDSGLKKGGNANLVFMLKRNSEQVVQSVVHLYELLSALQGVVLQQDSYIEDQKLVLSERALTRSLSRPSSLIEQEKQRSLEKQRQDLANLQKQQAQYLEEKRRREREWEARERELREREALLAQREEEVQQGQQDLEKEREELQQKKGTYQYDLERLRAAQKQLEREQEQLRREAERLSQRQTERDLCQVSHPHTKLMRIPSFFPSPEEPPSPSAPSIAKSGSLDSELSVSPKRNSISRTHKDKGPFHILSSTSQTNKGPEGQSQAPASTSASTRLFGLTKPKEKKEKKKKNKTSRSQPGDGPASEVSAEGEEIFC
UniProt Q13509, whole entry: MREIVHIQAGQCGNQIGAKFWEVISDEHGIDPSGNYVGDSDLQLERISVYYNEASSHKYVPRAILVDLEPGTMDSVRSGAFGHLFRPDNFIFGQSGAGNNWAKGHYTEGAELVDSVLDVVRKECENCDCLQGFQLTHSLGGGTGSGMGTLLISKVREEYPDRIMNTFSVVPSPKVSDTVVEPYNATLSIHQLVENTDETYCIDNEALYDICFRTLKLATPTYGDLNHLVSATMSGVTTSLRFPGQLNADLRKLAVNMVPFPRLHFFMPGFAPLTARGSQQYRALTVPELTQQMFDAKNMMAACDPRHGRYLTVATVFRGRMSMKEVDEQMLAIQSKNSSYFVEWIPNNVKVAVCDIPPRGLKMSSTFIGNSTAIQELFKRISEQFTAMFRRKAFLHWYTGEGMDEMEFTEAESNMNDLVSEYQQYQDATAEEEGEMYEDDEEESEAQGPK

Compound: Nc1ncnc2c1ncn2[C@@H]1O[C@H](COP(=O)(O)OP(=O)(O)OP(=O)(O)O)[C@@H](O)[C@H]1O [adenosine triphosphate]
Assay: NP40-soluble protein abundance relative to vehicle (solubility fold change) (ratio); higher = more soluble protein in presence of ATP
How it was run: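 Across three independent experiments, values are fold changes against the detergent-processed vehicle for each replicate, based on vsn-normalised intensities. The samples were Jurkat crude lysate treated with eight concentrations (0.1 to 10 mM) for 10 min at room temperature and then 3 min at 37 °C. Lysate was solubilised with 0.8% NP40 and benzonase, ultracentrifuged, and the supernatant analysed by TMT-labelled LC-MS/MS.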

Target	NP40-soluble protein abundance (concentration: 0.1mM)	NP40-soluble protein abundance (concentration: 0.5mM)
UniProt Q01130 and related entries	1.04 ± 0.031	1.22 ± 0.057
UniProt Q13105 and related entries	1.03 ± 0.083	1.04 ± 0.11
UniProt Q05086 and related entries	1.01 ± 0.046	1 ± 0.047
ITK (UniProt Q08881)	1.06 ± 0.085	1.05 ± 0.048
SPAG1 (UniProt Q07617)	0.988 ± 0.085	0.928 ± 0.034
MKRN3 (UniProt Q13064)	1.05 ± 0.029	0.986 ± 0.054
MTMR2 (UniProt Q13614)	1.02 ± 0.057	1.06 ± 0.034
UniProt Q02083 and related entries	0.963 ± 0.081	0.942 ± 0.094
UniProt Q13501 and related entries	1.02 ± 0.028	0.937 ± 0.012
SLFN5 (UniProt Q08AF3)	1.1 ± 0.018	1.2 ± 0.031
UniProt Q13627-2	1.04 ± 0.032	1.16 ± 0.062
UniProt Q13330 and related entries	1.02 ± 0.057	1.06 ± 0.024
USP4 (UniProt Q13107)	1.06 ± 0.063	1.02 ± 0.028
UniProt Q13308 and related entries	0.997 ± 0.042	0.9692 ± 0.0067
UniProt Q03188	1.03 ± 0.047	0.997 ± 0.025
SNX1 (UniProt Q13596)	1.02 ± 0.04	1.03 ± 0.039
UniProt Q01831 and related entries	1.03 ± 0.043	1.01 ± 0.041
FKBP5 (UniProt Q13451)	1.01 ± 0.032	1.03 ± 0.066
UniProt Q14005 and related entries	0.994 ± 0.028	1.01 ± 0.083
ALDH6A1 (UniProt Q02252)	1.02 ± 0.055	1.03 ± 0.044

Target	NP40-soluble protein abundance (concentration: 0.1mM)	NP40-soluble protein abundance (concentration: 0.5mM)
UniProt Q01085 and related entries	1.04 ± 0.044	1.02 ± 0.072
UniProt Q08209 and related entries	1.02 ± 0.05	1 ± 0.055
STX4 (UniProt Q12846)	1.01 ± 0.024	1.02 ± 0.041
PLCB3 (UniProt Q01970)	1.01 ± 0.061	1.01 ± 0.013
UniProt Q13188 and related entries	0.9984 ± 0.0013	0.983 ± 0.038
VAC14 (UniProt Q08AM6)	1.02 ± 0.031	1.04 ± 0.02
TFAP4 (UniProt Q01664)	0.975 ± 0.077	0.921 ± 0.083
CSTF3 (UniProt Q12996)	1.027 ± 0.006	1.06 ± 0.043
UniProt Q13043	1.02 ± 0.028	1.03 ± 0.071
UniProt Q12959-3|Q12959-2|Q12959-4	1.03 ± 0.038	1.04 ± 0.035
CKAP5 (UniProt Q14008)	0.982 ± 0.033	1.01 ± 0.043
ACACA (UniProt Q13085)	1.07 ± 0.046	1.04 ± 0.029
DSG2 (UniProt Q14126)	0.972 ± 0.056	0.951 ± 0.044
UniProt Q05932 and related entries	1.07 ± 0.096	1.02 ± 0.099
UniProt Q12802 and related entries	1.02 ± 0.059	1.04 ± 0.059
TUBB3 (UniProt Q13509)	1.02 ± 0.084	1.01 ± 0.072
BYSL (UniProt Q13895)	0.964 ± 0.067	1.03 ± 0.033
PMPCA (UniProt Q10713)	1.06 ± 0.11	1.05 ± 0.062
UniProt Q13332-2|Q13332-6	1.02 ± 0.041	1.02 ± 0.076

Another view of part of the listing above:
Target,NP40-soluble protein abundance (concentration: 0.1mM),NP40-soluble protein abundance (concentration: 0.5mM)
TFAP4 (UniProt Q01664),0.975 ± 0.077,0.921 ± 0.083
CSTF3 (UniProt Q12996),1.027 ± 0.006,1.06 ± 0.043
